# Reference: patent US7179886B1, “Cloning and identification of the motilin receptor” (Merck & Co., Inc., priority 1999, dated 2007)
# Sequences of proteins named here, by UniProt entry; tags and fusion partners are left off. A change or cut given only in a name is not applied to a line headed by its entry.
# UniProt O43193: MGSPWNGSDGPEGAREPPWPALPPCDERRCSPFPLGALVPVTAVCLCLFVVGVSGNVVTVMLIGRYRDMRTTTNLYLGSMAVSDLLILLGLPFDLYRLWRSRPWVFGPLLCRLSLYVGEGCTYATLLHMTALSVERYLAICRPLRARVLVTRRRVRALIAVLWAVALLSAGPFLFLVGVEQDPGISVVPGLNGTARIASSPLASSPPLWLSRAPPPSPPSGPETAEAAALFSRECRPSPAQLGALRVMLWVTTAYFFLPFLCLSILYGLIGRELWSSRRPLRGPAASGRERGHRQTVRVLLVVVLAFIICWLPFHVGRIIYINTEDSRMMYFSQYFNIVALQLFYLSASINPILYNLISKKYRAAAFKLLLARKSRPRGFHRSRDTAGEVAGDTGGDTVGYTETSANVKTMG
# Not every detail of the peptide structures is certain; ends, links or a residue may be inferred. No end group written: not given here.
# Target: T1, Cloned MTL-1A Receptor (human) (Homo sapiens, UniProt O43193)
# T1 construct: The full length open reading frame appears to contain 412 amino acids; expressed in transfected cells; host or cells: HEK-293/aeq17 (293-AEQ17), transient transfection with lipofectamine
# Assay: Aequorin bioluminescence assay in HEK-293/aeq17 cells transfected with MTL-R1A
# Format: cell-based
# Conditions: HEK-293/aeq17 cells transfected with human MTL-R1A
# Procedure: A high-throughput assay was developed which measures Ca^2+realease with the bioluminescent Ca^2+sensitive-aequorin reporter protein (capable of measuring ligand-induced IP3-coupled mobilization of intracellular calcium and concomitant calcium-induced aequorin bioluminescence). […] The DNA and deduced amino acid sequence are given in SEQ. ID. NO.:2 and SEQ. ID. NO.:3, respectively. […]
# 293-AEQ17 cells (8×10^5 cells plated 18 hrs. before transfection in a T75 flask) were transfected with 22 μg of human MTL-R1A plasmid DNA: 264 μg lipofectamine. […] 100 μl of cell suspension (corresponding to 5×10^4 cells) was then injected into the test plate, and the integrated light emission was recorded over 30 seconds, in 0.5 second units. 20 μL of lysis buffer (0.1% final Triton X-100 concentration) was then injected and the integrated light emission recorded over 10 seconds, in 0.5 second units. The “fractional response” values for each well were calculated by taking the ratio of the integrated response to the initial challenge to the total integrated luminescence including the Triton X-100 lysis response.
sequence,measurement,value
LQRMQEKERNKGQ [10-22 MTL],EC50,> 10000 nM
